Laboratory results reported in paper PMC12135372.

Columns and labels:
[1] = molecular target: Tb-RtcB L130C (Thermococcus barophilus) (UniProt F0LKB8); experiment: disulfide (cystamine) crosslinking, SDS-PAGE; conditions: 2.5 mM MnCl2, no specific crosslink (position-dependent), up to 1 mM DTT; cystamine on phosphate between nt 1 and 2; 2'-F at nt 1; 3'-phosphate; crosslinking: 50 mM Tris pH 7.5, 25 mM NaCl, 25 mM KCl, 30% glycerol, 2.5 mM MnCl2, 0-1 mM DTT, 37 C 2 h then 24 C 14 h; recombinant protein; protein details: His6-SUMO removed
[2] = molecular target: Tb-RtcB S199C (Thermococcus barophilus) (UniProt F0LKB8); experiment: disulfide (cystamine) crosslinking, SDS-PAGE; conditions: 2.5 mM MnCl2, no specific crosslink (position-dependent), up to 1 mM DTT; cystamine on phosphate between nt 1 and 2; 2'-F at nt 1; 3'-phosphate; crosslinking: 50 mM Tris pH 7.5, 25 mM NaCl, 25 mM KCl, 30% glycerol, 2.5 mM MnCl2, 0-1 mM DTT, 37 C 2 h then 24 C 14 h; recombinant protein; protein details: His6-SUMO removed

AAACACCGGUGGAGG [RNA-2]
binding result [1]: no binding
binding result [2]: no binding

Construct, isoform or probe ends are uncertain for at least one entry. A negative result means that nothing was seen under these conditions.
